Results from article PMC5913291.
No constants are given. Whether binding was seen depends on the method and setting. Binding seen in cells or lysates may run through a third protein. Some entries that bind do so weakly or less than the wild type. Tags and fused reporters may be left off the sequences shown.

Protein sequences, listed by entry. Tags and fused reporters are not part of them.
UniProt Q14258: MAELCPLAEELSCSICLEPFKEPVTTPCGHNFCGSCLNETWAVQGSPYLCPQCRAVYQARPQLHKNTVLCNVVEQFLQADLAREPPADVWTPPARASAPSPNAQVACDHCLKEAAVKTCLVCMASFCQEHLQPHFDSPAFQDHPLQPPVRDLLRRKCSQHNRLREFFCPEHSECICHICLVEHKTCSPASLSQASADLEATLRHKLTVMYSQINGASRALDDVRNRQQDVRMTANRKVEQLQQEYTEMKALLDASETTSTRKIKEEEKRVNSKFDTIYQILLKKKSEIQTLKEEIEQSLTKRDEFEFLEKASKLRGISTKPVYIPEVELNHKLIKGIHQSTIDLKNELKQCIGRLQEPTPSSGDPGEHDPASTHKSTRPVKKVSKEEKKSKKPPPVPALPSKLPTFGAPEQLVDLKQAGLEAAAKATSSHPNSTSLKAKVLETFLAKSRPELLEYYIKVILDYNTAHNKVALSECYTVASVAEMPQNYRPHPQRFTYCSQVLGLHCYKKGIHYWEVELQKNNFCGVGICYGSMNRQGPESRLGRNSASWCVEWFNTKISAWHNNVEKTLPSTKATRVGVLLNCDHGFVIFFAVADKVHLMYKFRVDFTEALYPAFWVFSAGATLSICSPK

Target: T1, Flag-tagged RIG-I 2CARD domain (human, 1-284 amino acids) (human) (UniProt O95786)
T1 sequence: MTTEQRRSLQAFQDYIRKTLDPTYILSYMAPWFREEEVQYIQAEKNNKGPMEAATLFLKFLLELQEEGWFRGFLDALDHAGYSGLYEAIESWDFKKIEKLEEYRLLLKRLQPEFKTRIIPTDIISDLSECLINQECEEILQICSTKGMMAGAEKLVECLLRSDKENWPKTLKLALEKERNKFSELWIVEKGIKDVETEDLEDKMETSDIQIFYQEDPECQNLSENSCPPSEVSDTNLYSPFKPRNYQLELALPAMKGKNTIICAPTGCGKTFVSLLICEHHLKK
Assay: pull-down; biotinylated cFP mixed with lysate of non-stimulated HEK293T cells transiently expressing CARD-Flag, 2 h at 4 °C, captured on streptavidin magnetic beads, washed three times with cell lysis buffer (50 mM Tris-HCl pH 7.5, 150 mM NaCl, 1 mM EDTA, 1% Nonidet P-40); immunoblot of the pulled-down proteins

Molecule	binding
TRIM25 (from UniProt Q14258 1-630)	binds
Riplet (protein, UniProt Q8IUD6 1-432) MAGLGLGSAVPVWLAEDDLGCIICQGLLDWPATLPCGHSFCRHCLEALWGARDARRWACPTCRQGAAQQPHLRKNTLLQDLADKYRRAAREIQAGSDPAHCPCPGSSSLSSAAARPRRRPELQRVAVEKSITEVAQELTELVEHLVDIVRSLQNQRPLSESGPDNELSILGKAFSSGVDLSMASPKLVTSDTAAGKIRDILHDLEEIQEKLQESVTWKEAPEAQMQGELLEAPSSSSCPLPDQSHPALRRASRFAQWAIHPTFNLKSLSCSLEVSKDSRTVTVSHRPQPYRWSCERFSTSQVLCSQALSSGKHYWEVDTRNCSHWAVGVASWEMSRDQVLGRTMDSCCVEWKGTSQLSAWHMVKETVLGSDRPGVVGIWLNLEEGKLAFYSVDNQEKLLYECTISASSPLYPAFWLYGLHPGNYLIIKQVKV	no binding
